Measured values as given in publication PMC11358013.
These are yes or no findings as the source states them, for the method shown. Some results given as binding are weak or reduced against the parent protein; the word gives no strength. Tags and fused reporters may be left off the sequences shown.

By UniProt entry, the sequences of proteins in these tests, tags left out.
UniProt Q68Y81: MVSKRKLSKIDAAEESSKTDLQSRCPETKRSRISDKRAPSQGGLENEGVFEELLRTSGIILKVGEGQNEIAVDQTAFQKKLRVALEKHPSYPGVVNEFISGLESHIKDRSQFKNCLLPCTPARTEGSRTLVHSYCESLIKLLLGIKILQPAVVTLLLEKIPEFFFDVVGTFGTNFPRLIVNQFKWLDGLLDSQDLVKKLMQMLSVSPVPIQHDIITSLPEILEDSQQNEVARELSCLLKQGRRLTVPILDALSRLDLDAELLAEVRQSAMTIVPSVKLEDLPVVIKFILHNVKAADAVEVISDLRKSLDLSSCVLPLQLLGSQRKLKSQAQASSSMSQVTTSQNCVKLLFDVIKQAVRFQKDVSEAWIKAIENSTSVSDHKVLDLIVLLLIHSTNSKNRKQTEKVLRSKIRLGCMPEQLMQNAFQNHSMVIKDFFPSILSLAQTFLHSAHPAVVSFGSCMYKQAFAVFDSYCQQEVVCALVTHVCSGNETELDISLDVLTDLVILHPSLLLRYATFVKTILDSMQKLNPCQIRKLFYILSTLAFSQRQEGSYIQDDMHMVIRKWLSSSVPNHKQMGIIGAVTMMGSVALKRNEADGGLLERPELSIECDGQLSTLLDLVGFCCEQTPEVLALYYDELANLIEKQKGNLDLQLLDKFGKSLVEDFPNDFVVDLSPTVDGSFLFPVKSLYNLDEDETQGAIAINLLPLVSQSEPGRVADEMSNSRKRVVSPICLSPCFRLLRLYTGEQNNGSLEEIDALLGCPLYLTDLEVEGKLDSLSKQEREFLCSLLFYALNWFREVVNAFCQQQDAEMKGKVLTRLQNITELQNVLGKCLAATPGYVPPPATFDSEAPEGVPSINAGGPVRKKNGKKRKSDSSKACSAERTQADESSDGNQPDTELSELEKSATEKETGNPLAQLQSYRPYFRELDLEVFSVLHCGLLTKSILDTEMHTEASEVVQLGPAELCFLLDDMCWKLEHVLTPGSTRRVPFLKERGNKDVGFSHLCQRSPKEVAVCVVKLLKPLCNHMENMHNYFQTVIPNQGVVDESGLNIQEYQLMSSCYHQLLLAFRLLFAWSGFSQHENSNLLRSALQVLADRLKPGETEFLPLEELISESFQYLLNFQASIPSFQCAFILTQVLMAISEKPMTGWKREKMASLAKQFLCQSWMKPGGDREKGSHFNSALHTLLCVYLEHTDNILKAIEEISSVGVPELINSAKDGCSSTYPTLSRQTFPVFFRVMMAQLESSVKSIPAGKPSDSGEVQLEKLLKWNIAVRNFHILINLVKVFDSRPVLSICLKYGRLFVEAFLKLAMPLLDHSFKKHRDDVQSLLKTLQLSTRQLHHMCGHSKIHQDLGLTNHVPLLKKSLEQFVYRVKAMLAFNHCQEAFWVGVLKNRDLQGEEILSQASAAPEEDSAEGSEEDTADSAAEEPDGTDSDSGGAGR

Legend:
[1] = target: T1, Gallus gallus FANCI (untagged, from the co-expressed D2–I complex) (Gallus gallus) (UniProt B0I564); assay: cryo-EM structure; chicken D2–I with 44 bp linear dsDNA (oligos P1 and P7); same grid preparation as for ss–dsDNA; 20 mM HEPES pH 7.5, 75 mM NaCl, 1 mM TCEP; both purified
T1 sequence: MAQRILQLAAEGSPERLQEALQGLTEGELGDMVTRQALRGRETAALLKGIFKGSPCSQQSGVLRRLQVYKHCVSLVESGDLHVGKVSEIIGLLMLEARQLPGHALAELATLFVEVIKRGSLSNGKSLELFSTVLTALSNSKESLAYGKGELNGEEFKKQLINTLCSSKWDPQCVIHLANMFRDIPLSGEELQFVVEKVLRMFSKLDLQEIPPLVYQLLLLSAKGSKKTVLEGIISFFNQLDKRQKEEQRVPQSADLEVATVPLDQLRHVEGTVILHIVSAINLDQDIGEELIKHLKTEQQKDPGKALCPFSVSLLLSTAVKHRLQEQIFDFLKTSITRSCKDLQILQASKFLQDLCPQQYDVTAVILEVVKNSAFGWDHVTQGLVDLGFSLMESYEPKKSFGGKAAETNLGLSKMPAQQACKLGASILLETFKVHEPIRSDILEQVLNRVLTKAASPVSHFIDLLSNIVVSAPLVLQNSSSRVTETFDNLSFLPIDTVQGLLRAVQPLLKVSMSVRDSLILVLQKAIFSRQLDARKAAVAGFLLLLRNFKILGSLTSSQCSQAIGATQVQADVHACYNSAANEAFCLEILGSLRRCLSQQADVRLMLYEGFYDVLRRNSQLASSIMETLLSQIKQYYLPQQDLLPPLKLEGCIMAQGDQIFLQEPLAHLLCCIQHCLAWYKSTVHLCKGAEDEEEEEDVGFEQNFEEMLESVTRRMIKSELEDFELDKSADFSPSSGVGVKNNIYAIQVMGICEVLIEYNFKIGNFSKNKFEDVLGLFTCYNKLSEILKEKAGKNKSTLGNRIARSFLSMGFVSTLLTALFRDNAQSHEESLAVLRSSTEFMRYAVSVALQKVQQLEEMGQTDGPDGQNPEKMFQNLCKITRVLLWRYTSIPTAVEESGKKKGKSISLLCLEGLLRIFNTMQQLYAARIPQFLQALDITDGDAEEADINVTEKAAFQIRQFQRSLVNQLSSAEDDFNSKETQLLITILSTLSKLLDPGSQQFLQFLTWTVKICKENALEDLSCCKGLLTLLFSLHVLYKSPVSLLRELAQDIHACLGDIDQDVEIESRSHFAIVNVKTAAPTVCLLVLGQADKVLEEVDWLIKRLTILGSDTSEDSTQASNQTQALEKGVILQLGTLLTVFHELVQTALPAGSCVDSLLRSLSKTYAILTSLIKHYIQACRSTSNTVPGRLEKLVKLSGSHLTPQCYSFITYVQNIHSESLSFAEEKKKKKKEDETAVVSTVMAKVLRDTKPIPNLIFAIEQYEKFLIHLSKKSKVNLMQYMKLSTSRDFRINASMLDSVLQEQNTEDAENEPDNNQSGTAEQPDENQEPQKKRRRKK

[2] = target: T1, Gallus gallus FANCI (untagged, from the co-expressed D2–I complex) (Gallus gallus); assay: cryo-EM structure; 1 µM chicken D2–I with 3 µM ss–dsDNA (29 bp duplex flanked by 30 nt and 40 nt overhangs); 20 mM HEPES pH 7.5, 75 mM NaCl, 1 mM TCEP, 15 min at 22 °C; both purified

binding [1]: binds
binding [2]: binds
Substance: Gallus gallus FANCD2 (untagged, from the co-expressed D2–I complex) (from UniProt Q68Y81 1-1439)
